Measured values from patent publication US20040248207A1 (UNIVERSITY COLLEGE LONDON, published 2004).
These are yes or no findings as the source states them, for the method shown. For some assays here: Binding seen in cells or lysates may run through a third protein. Some entries that bind do so weakly or less than the wild type. Each block holds one molecule with its values, some of them ahead of it.

Columns and labels:
[1] = target: N-terminal intracellular domain (amino acid position 1-127) of Nav1.8 as in-frame fusion with the LexA-DNA binding domain (two-hybrid bait, pEG202) (rat); assay: yeast two-hybrid screen (beta-galactosidase activity and growth without leucine), bait LexA-Nav1.8 1-127
[2] = target: N-terminal intracellular domain (amino acid position 1-127) of Nav1.8 as in-frame fusion with the LexA-DNA binding domain (two-hybrid bait, pEG202) (rat); assay: yeast two-hybrid screen, bait LexA-Nav1.8 1-127
[3] = target: GFP/p11-2 fusion protein (rat) (UniProt P05943); assay: GST pull-down on glutathione-sepharose beads, anti-GFP immunoblot
[4] = target: GST-N3 (rat) (UniProt Q62968); assay: GST pull-down
[5] = target: GST-N3 (rat) (UniProt Q62968); assay: GST pull-down on glutathione-sepharose beads, anti-GFP immunoblot

binding [1]: binds
binding [2]: binds
Molecule: full length rat p11 expressed as in-frame fusion with the Gal4 transcriptional activation domain (two-hybrid library clone) (from UniProt P05943 1-95)

binding [3]: binds
B1: GST/Nav1.8 N-terminus fusion protein, designated GST-SNS(I) (other)
chain: MELPFASVGTTNFRRFTPESLAEIEKQIAAHRAAKKARTKHRGQEDKGEKPRPQLDLKDCNQLPKFYGELPAELVGEPLEDLDPFYSTHRTFMVLNKSRTISRFSATWALWLFSPFNLIRRTAIKVS
notes: also called GST/SNS(I) fusion protein; not shown: glutathione-S-transferase (GST) as encoded by vector pGEX-5X-1 (Amersham Pharmacia Biotech); species and limits not stat; vector-encoded residues between GST and the EcoRI site of pGEX-5X-1

binding [4]: binds
binding [5]: binds
B2: GFP-p11 fusion protein (other, not shown: large carriers; small tags and cut ends)
chain: MPSQMEHAMETMMLTFHRFAGEKNYLTKEDLRVLMEREFPGFLENQKDPLAVDKIMKDLDQCRDGKVGFQSFLSLVAGLIIACNDYFVVHMKQKK
notes: Expressed from pBS-GFP/p11 in COS-7 cells and used as cell extract
